{"source": "PubChem BioAssay AID1159584 (Peter MacCallum Cancer Centre, 2016)", "purpose": "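Genes that CDH1-null MCF10A cells selectively depend on to survive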 (primary screen)", "cell system": "human MCF10A breast epithelial cells, parental and CDH1-null", "reagents": "siRNA against human genes", "read-out": "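Cell viability by CellTiter-Glo ATP luminescence, each line scaled to the mean of mock wells across plates, then CDH1-null over parental ratio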", "scale": "CDH1-null / parental viability ratio: higher = CDH1-null cells survive relatively better than parental; CDH1-null viability vs mock: higher = more viable CDH1-null cells", "units": "CDH1-null viability vs mock in fraction of mock", "note": "The deposit covers about 18,000 reagents; shown is a part drawn at random. Not all columns of the deposit are shown. Reagent sequences are not shown. Not stated in the record: the amount of reagent, the time to read-out."}
{"target gene": "ZNF79", "CDH1-null / parental viability ratio": 1.79, "CDH1-null viability vs mock": 0.84}
{"target gene": "RABEPK", "CDH1-null / parental viability ratio": 1.13, "CDH1-null viability vs mock": 0.87}
{"target gene": "PRDM6", "CDH1-null / parental viability ratio": 1.2, "CDH1-null viability vs mock": 1.1}
{"target gene": "KIF2C", "CDH1-null / parental viability ratio": 1.07, "CDH1-null viability vs mock": 0.94}
{"target gene": "PSTPIP1", "CDH1-null / parental viability ratio": 1.02, "CDH1-null viability vs mock": 0.82}
{"target gene": "EPB41L5", "CDH1-null / parental viability ratio": 1.21, "CDH1-null viability vs mock": 0.92}
{"target gene": "RAB10", "CDH1-null / parental viability ratio": 1, "CDH1-null viability vs mock": 0.62}
{"target gene": "SFMBT1", "CDH1-null / parental viability ratio": 1.05, "CDH1-null viability vs mock": 0.84}
{"target gene": "ZNF609", "CDH1-null / parental viability ratio": 1.03, "CDH1-null viability vs mock": 0.76}
{"target gene": "POU4F2", "CDH1-null / parental viability ratio": 1.12, "CDH1-null viability vs mock": 1.12}
{"target gene": "TMEM67", "CDH1-null / parental viability ratio": 1.01, "CDH1-null viability vs mock": 1.01}
{"target gene": "RASSF7", "CDH1-null / parental viability ratio": 1.02, "CDH1-null viability vs mock": 0.52}
{"target gene": "CRMP1", "CDH1-null / parental viability ratio": 1.07, "CDH1-null viability vs mock": 0.98}
{"target gene": "CPA1", "CDH1-null / parental viability ratio": 1.32, "CDH1-null viability vs mock": 0.87}
{"target gene": "MPRIP", "CDH1-null / parental viability ratio": 0.84, "CDH1-null viability vs mock": 0.62}
{"target gene": "EIF4E2", "CDH1-null / parental viability ratio": 0.67, "CDH1-null viability vs mock": 0.42}
{"target gene": "SRF", "CDH1-null / parental viability ratio": 1.22, "CDH1-null viability vs mock": 1.04}
{"target gene": "TNFRSF12A", "CDH1-null / parental viability ratio": 1.05, "CDH1-null viability vs mock": 0.82}
{"target gene": "SGK2", "CDH1-null / parental viability ratio": 0.85, "CDH1-null viability vs mock": 0.74}
{"target gene": "COPS5", "CDH1-null / parental viability ratio": 0.68, "CDH1-null viability vs mock": 0.5}
{"target gene": "EBAG9", "CDH1-null / parental viability ratio": 1.23, "CDH1-null viability vs mock": 1.08}
{"target gene": "PCGF3", "CDH1-null / parental viability ratio": 1.03, "CDH1-null viability vs mock": 0.96}
{"target gene": "SRCAP", "CDH1-null / parental viability ratio": 0.87, "CDH1-null viability vs mock": 0.54}
{"target gene": "BCL2L2", "CDH1-null / parental viability ratio": 0.92, "CDH1-null viability vs mock": 0.57}
{"target gene": "KANK2", "CDH1-null / parental viability ratio": 0.93, "CDH1-null viability vs mock": 0.8}
{"target gene": "CPSF7", "CDH1-null / parental viability ratio": 1.07, "CDH1-null viability vs mock": 1.08}
{"target gene": "VPS26A", "CDH1-null / parental viability ratio": 1.29, "CDH1-null viability vs mock": 0.98}
{"target gene": "CUZD1", "CDH1-null / parental viability ratio": 1.24, "CDH1-null viability vs mock": 1.1}
{"target gene": "ARGFX", "CDH1-null / parental viability ratio": 0.7, "CDH1-null viability vs mock": 0.35}
{"target gene": "MYO1A", "CDH1-null / parental viability ratio": 1.09, "CDH1-null viability vs mock": 0.98}
{"target gene": "FASTKD3", "CDH1-null / parental viability ratio": 1.08, "CDH1-null viability vs mock": 0.94}
{"target gene": "LY6E", "CDH1-null / parental viability ratio": 0.86, "CDH1-null viability vs mock": 0.5}
{"target gene": "XAGE5", "CDH1-null / parental viability ratio": 0.73, "CDH1-null viability vs mock": 0.47}
{"target gene": "EPX", "CDH1-null / parental viability ratio": 0.94, "CDH1-null viability vs mock": 0.76}
{"target gene": "PRTFDC1", "CDH1-null / parental viability ratio": 1, "CDH1-null viability vs mock": 1.04}
{"target gene": "SNRPG", "CDH1-null / parental viability ratio": 1, "CDH1-null viability vs mock": 0.4}
{"target gene": "GRHL2", "CDH1-null / parental viability ratio": 1.15, "CDH1-null viability vs mock": 0.7}
{"target gene": "GYG1", "CDH1-null / parental viability ratio": 0.85, "CDH1-null viability vs mock": 0.7}
{"target gene": "IDH3B", "CDH1-null / parental viability ratio": 1.08, "CDH1-null viability vs mock": 0.8}
{"target gene": "SLC15A2", "CDH1-null / parental viability ratio": 1.11, "CDH1-null viability vs mock": 1.03}
{"target gene": "SPAG9", "CDH1-null / parental viability ratio": 0.82, "CDH1-null viability vs mock": 0.49}
{"target gene": "MRPS7", "CDH1-null / parental viability ratio": 1.11, "CDH1-null viability vs mock": 0.88}
{"target gene": "SAMD8", "CDH1-null / parental viability ratio": 1.54, "CDH1-null viability vs mock": 0.88}
{"target gene": "TNFRSF13C", "CDH1-null / parental viability ratio": 1.13, "CDH1-null viability vs mock": 0.44}
{"target gene": "CSKMT", "CDH1-null / parental viability ratio": 1.1, "CDH1-null viability vs mock": 0.66}

Laid out differently: entries from further up
target gene,CDH1-null / parental viability ratio,CDH1-null viability vs mock
BCL2L2,0.92,0.57
KANK2,0.93,0.8
CPSF7,1.07,1.08
